Source: publication PMC7726220
Results are given in words; binding and its absence hold for the method and conditions named. In cells and extracts the contact can be indirect. Some binding calls cover weakened binding; strength is not graded here. Sequences can lack the tags named with a protein.

Assays:
Assay in all cases: co-IP; HEK 293T cells transiently transfected with tagged constructs (or endogenous partner); lysis in 50 mM Tris-HCl pH 8.0, 150 mM NaCl, 10% glycerol, 1 mM EDTA, 1% DDM or 0.5% NP-40; anti-Flag M2, anti-c-Myc or anti-HA magnetic beads; Western blot; in Figure 6D with or without overexpressed TMEM132A
[1] = substrate: T1, C truncation of T132A-Flag (mouse) (UniProt Q922P8)
T1 sequence: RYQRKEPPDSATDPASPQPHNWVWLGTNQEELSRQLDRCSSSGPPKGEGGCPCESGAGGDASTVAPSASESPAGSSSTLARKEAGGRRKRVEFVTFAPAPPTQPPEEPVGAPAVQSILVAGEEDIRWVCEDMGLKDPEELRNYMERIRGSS

[2] = substrate: T2, SN truncation of T132A-Flag (mouse) (UniProt Q922P8)
T2 sequence: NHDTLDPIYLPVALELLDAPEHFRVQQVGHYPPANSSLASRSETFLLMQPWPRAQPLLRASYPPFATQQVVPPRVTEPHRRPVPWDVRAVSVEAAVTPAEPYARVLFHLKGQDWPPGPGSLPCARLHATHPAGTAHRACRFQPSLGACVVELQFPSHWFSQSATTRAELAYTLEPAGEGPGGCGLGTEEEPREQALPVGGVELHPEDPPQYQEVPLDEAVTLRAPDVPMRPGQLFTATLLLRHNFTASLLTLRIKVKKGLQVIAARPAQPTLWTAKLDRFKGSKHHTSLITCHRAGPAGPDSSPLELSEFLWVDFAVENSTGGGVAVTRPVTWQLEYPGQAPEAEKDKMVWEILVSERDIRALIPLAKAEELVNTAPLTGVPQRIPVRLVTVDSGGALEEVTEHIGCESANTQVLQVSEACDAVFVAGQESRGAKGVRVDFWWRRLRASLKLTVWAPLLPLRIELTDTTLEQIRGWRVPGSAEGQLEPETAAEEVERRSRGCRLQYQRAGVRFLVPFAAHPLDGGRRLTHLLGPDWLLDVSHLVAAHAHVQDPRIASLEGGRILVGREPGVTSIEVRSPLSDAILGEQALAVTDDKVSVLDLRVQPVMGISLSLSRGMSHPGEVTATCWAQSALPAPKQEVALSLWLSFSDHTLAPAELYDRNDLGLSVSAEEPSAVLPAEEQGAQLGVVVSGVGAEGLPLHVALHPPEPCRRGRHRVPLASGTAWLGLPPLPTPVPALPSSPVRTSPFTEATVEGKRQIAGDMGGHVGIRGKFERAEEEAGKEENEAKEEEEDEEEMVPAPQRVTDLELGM

[3] = substrate: T3, SNC construct of T132A-Flag (only the TM domain removed) (mouse) (UniProt Q922P8)
T3 sequence: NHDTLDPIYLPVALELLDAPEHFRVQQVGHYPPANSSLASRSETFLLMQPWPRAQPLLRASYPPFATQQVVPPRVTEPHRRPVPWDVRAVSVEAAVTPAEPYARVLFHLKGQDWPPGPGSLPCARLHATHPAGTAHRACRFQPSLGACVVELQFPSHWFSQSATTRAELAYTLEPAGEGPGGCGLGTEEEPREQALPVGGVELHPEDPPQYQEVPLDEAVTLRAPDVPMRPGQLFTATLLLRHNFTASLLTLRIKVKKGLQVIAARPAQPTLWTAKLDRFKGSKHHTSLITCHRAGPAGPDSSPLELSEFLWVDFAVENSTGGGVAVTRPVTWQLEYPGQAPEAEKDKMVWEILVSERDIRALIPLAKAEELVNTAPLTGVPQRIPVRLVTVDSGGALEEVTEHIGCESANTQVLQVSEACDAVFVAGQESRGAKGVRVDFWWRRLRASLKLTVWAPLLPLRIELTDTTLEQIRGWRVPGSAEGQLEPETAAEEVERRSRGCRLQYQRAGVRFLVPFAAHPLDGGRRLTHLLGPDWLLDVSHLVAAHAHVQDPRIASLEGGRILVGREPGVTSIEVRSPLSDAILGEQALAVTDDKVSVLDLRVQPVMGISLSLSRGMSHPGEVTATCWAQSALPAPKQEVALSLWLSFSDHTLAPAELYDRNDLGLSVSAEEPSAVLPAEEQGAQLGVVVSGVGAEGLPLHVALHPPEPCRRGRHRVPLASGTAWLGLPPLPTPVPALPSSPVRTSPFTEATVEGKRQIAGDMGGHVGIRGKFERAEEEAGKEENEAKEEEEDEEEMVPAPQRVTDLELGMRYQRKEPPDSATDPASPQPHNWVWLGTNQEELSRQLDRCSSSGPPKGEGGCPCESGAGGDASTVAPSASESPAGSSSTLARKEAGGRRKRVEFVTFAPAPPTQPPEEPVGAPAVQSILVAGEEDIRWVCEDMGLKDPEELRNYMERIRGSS

[4] = target: T4, STC truncation of T132A-Flag (mouse) (UniProt Q922P8)
T4 sequence: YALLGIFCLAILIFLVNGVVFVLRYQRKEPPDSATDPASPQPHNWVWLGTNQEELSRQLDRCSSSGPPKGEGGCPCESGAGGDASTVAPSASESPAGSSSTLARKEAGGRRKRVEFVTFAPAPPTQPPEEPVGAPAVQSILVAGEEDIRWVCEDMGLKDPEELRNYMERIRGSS

[5] = target: T5, ST construct of T132A-Flag (only the signal peptide and TM domain) (mouse) (UniProt Q922P8)
T5 sequence: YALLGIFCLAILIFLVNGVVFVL

B1: HA-tagged full-length WLS (FL WLS-HA) (protein, UniProt Q6DID7-1 1-541)
chain: MAGAIIENMSTKKLCIVGGILLVFQIVAFLVGGLIAPAPTTAVPYTAIKCVDVRKNHHKTRWLAPWGPNKCDKIRDIEEAIPREIEANDIVFSVHIPLPSMEMSPWFQFMLFILQLDIAFKLNNQIRENAEISMDVSLGYRDDMFSEWTEMAHERVPRKLKCTFTSPKTPEHEGRYYNCDVLPFMEIGSVAHKYYLLNIRLPVNEKKKINVGIGEIKDIRLVGIHQNGGFTKVWFAMKTFLTPSIFIIMVWYWRRITMMSRPPVLLEKVIFALGISMTFINIPVEWFSIGFDWTWMLLFGDIRQGIFYAMLLSFWIIFCGEHMMDQHERNHIAGYWKQVGPIAVGSFCLFIFDMCERGVQLTNPFYSIWTTDVGTELAMAFIIVAGICLCLYFLFLCFMVFQVFRNISGKQSSLPAMSKVRRLHYEGLIFRFKFLMLITLACAAMTVIFFIVSQVSEGHWKWGGVTVQVSSAFFTGIYGMWNLYVFALMFLYAPSHKNYGEDQSNGDLGVHSGEELQLTTTITHVDGPTEIYKLTRKEAQE
[1]
  binding: no binding
[2]
  binding: no binding
[3]
  binding: no binding
[4]
  binding: binds
[5]
  binding: binds
